Laboratory results reported in PubChem BioAssay AID588590 (National Center for Advancing Translational Sciences (NCATS), 2011).
Out of some 390,000 compounds screened, about 4,000 (1%) were called active. This list was built around the results that the source calls inconclusive (neither active nor inactive); the mix of calls is not that of the screen. Calls come from the whole dose curve; as a rule, active = well fitted inhibition curve with a large enough effect; inconclusive = small, poorly fitted or top-dose-only effect, or another doubt; inactive = no such curve, though single readings can be large or run the other way. A potency beside an inconclusive call is a rough fit, not a confirmed value.

Chains of the proteins cited; added tags and fusions are not shown. Lines headed by an entry give the natural chain unless they say otherwise; changes in a name come on top.
UniProt Q9UNA4: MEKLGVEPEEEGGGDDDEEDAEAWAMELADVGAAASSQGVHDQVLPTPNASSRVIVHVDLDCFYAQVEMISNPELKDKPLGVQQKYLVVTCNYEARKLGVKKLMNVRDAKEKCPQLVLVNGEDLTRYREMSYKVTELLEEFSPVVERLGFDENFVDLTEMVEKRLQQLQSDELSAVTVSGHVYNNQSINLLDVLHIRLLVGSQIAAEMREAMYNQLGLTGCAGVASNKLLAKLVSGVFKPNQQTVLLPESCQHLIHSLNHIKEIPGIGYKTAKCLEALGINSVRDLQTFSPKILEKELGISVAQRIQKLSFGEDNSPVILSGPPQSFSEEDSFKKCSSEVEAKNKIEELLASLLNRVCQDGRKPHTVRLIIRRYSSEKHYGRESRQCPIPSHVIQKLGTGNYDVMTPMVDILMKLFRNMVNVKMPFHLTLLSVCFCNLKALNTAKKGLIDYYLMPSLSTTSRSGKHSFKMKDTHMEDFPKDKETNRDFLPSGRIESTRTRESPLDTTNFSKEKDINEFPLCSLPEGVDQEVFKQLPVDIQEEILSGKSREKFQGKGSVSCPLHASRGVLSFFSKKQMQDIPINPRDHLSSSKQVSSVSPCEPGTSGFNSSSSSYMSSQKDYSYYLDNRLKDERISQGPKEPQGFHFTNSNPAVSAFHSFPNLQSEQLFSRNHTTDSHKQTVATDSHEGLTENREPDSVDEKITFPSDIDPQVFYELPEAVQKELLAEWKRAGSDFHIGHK

Molecular target: DNA polymerase iota (Homo sapiens) (UniProt Q9UNA4)
Test: qHTS for Inhibitors of Polymerase Iota
Details: Pol iota fluorescent replication assay, 10 min; series mostly up to 115 µM; activity, negative = inhibition: at the top concentration
Method in brief: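 Fluorescent replication assay read twice, at 0 min and 10 min after adding 50 nM (final) substrate. Enzyme (10 nM) and compounds were first incubated 15 min at room temperature; enzyme-free buffer wells were negative controls.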
Potency is the fitted concentration of half-maximal effect.

| SMILES | Potency | activity, negative = inhibition |
| --- | --- | --- |
| O=C(COC(=O)c1ccccc1NC(=O)c1ccco1)Nc1ccc2c(c1)OCO2 | inconclusive: 15.8 µM [inhibitor, partial curve, poor fit] | – |
| CCc1cc[n+](CC(=O)c2ccc(F)cc2)cc1C(=O)O | – | inactive: 13.8% |
| NC(=O)COc1ccc(/C=C2\C(=O)ON=C2c2ccccc2)cc1 | – | inactive: 20.4% |
| O=C(CSc1ncnc2c1oc1ccccc12)Nc1nccs1 | – | inactive: -16.7% |
| O=C1OC(c2ccc3c(c2)OCO3)=N/C1=C\c1ccc(C(=O)O)cc1 | inconclusive: 31.6 µM [inhibitor, partial curve] | – |
| O=C(CN1C(=O)c2cccc3cccc1c23)Nc1ccc(S(=O)(=O)Nc2nccs2)cc1 | inconclusive: 126 µM [inhibitor, partial curve, poor fit] | – |
| COc1ccc(OC)c(NC(=O)CN2C(=O)CC(C)Sc3ccccc32)c1 (configuration not stated) | – | inactive: 29.6% |
| COc1ccc(OC)c(C2CC(c3ccccc3)=NN2C(=S)Nc2ccccc2)c1 (configuration not stated) | inconclusive: 31.6 µM [inhibitor, partial curve, poor fit] | – |
| CCc1ccc(S(=O)(=O)Nc2ccc(-c3ccc4nnc(C)n4n3)cc2)s1 | inconclusive: 79.4 µM [inhibitor, single point] | – |
| COc1ccc2c(c1)c(=O)c(S(=O)(=O)c1ccccc1)cn2CC(=O)Nc1ccc(C)c(Cl)c1 | – | inactive: 34.8% |
| CCOc1ccc(OCCC(=O)NNC(=O)c2nn(C)c(=O)c3ccccc23)cc1 | inconclusive: 79.4 µM [inhibitor, partial curve] | – |
| Cc1cccc2c1N(Cc1ccccc1OCCC(C)C)C(=O)C2=O | inconclusive: 79.4 µM [inhibitor, single point] | – |
| CCc1ccccc1NCc1cc(=O)oc2cc(C)ccc12 | inconclusive: 89.1 µM [inhibitor, single point] | – |
| COC(=O)C(C)N1C(=O)S/C(=C\c2ccc(-c3ccc(C(=O)O)cc3C)o2)C1=O (configuration not stated) | inconclusive: 12.6 µM [inhibitor, full curve, poor fit] | – |
| Cc1cc(C(=O)COC(=O)c2ccc([N+](=O)[O-])o2)c(C)n1CC1CCCO1 (configuration not stated) | inconclusive: 22.4 µM [inhibitor, single point] | – |
| CCS(=O)(=O)CCSc1nc(C)cc(C)n1 | inconclusive: 89.1 µM [inhibitor, full curve] | – |
| Cc1ccc(C2C(C#N)=C(N)Oc3n[nH]c(C)c32)cc1 (configuration not stated) | inconclusive: 17.8 µM [inhibitor, partial curve] | – |
| CCCc1cc(=O)oc2cc(OCC(=O)NC(Cc3c[nH]c4ccc(O)cc34)C(=O)O)c(Cl)cc12 (configuration not stated) | inconclusive: 10 µM [inhibitor, partial curve, poor fit] | – |
| CC(C)(C)C(=O)CSc1ccc(S(=O)(=O)N2CCN(Cc3ccccc3)CC2)cn1 | inconclusive: 56.2 µM [inhibitor, partial curve, poor fit] | – |
| COc1cc(OC)cc(C(=O)NCC(=O)OCC(=O)c2cc(C)n(Cc3ccco3)c2C)c1 | inconclusive: 56.2 µM [inhibitor, partial curve, poor fit] | – |
| O=C(NCc1cccc(CNC(=O)C(=O)NCc2ccco2)c1)C(=O)NCc1ccco1 | inconclusive: 39.8 µM [inhibitor, partial curve, poor fit] | – |

Whole records as entered above. Order of values: Potency	activity, negative = inhibition
CCc1ccccc1NCc1cc(=O)oc2cc(C)ccc12 as listed: inconclusive: 89.1 µM [inhibitor, single point]	–
Cc1ccc(C2C(C#N)=C(N)Oc3n[nH]c(C)c32)cc1 (configuration not stated) as listed: inconclusive: 17.8 µM [inhibitor, partial curve]	–

More structures follow.

| SMILES | Potency | activity, negative = inhibition |
| --- | --- | --- |
| O=C(NC1CCCCCC1)c1ccco1 | active: 31.6 µM | – |
| COc1ccc(NS(=O)(=O)c2cn(C)c(=O)n(C)c2=O)c(OC)c1 | – | inactive: 1.55% |
| COc1ccccc1NC(=O)c1c(NCc2ccc(C)o2)sc2c1CCCCC2 | inconclusive: 25.1 µM [inhibitor, full curve, poor fit] | – |
| CCOc1nc(Nc2ccc(OC)cc2)nc(OCC)n1 | inconclusive: 39.8 µM [inhibitor, single point] | – |
| CC(C)NC(=O)c1sc2nc(-c3cccs3)cc(-c3cccs3)c2c1N | – | inactive: 32.6% |
| COc1cc(/C=N/NC(=O)C(Cc2c[nH]c3ccccc23)NC(=O)OCc2ccccc2)cc([N+](=O)[O-])c1O (configuration not stated) | inconclusive: 50.1 µM [inhibitor, partial curve] | – |
| Cn1cnc([N+](=O)[O-])c1Nc1ccc(O)cc1 | inconclusive: 0.355 µM [inhibitor, partial curve, poor fit] | – |
| Nc1cc(OC(=O)c2cccs2)nn1S(=O)(=O)c1ccccc1 | inconclusive: 3.98 µM [inhibitor, partial curve, poor fit] | – |
| Nc1ccc2nc(CCCO)[nH]c2c1 | inconclusive: 31.6 µM [inhibitor, single point] | – |
| CCc1ccc(-n2c(=O)c3c4c(sc3n(Cc3cc(=O)n5c(C)cccc5n3)c2=O)CCC4)cc1 | – | inactive: 1.98% |
| Cc1ccc(O)c(C2=Nc3ccccc3C2(C)C)c1 | inconclusive: 4.47 µM [inhibitor, partial curve, poor fit] | – |
| COc1ccc2c(c1)C=C(CN1CCN(Cc3ccccc3C)C(CCO)C1)CO2 (configuration not stated) | inconclusive: 89.1 µM [inhibitor, partial curve, poor fit] | – |
| CCOc1ccc2[nH]c(=O)c(C(c3nnnn3Cc3ccco3)N3CCCC(C)C3)cc2c1 (configuration not stated) | inconclusive: 14.1 µM [inhibitor, full curve, poor fit] | – |
| CCc1ccccc1NS(=O)(=O)c1ccc2nc(-c3ccccc3)[nH]c2c1 | inconclusive: 100 µM [inhibitor, single point] | – |
| CCOc1ccc(NC(=O)c2nc(S(=O)(=O)Cc3ccccc3C)ncc2Cl)cc1 | inconclusive: 39.8 µM [inhibitor, full curve, poor fit] | – |
| COc1cccc(/C(=N/O)C2CC2c2ccc(Cl)cc2)c1 (configuration not stated) | – | inactive: 84.2% |
| COc1cc(/C=C2\NC(=S)NC2=O)ccc1OCc1cccc(C(=O)O)c1 | inconclusive: 25.1 µM [inhibitor, partial curve, poor fit] | – |
| COc1ccc(-c2nc3ccccc3n3c(-c4cccc(C)c4)c4c(=O)n(C)c(=O)n(C)c4c23)cc1OC | – | inactive: -17.8% |
| O=C(CSc1nnc(-c2ccc(S(=O)(=O)N3CCCC3)cc2)o1)NCc1ccccc1 | – | inactive: -4.88% |
| CO/N=C/c1c(-c2ccc(Cl)cc2)nc2cc(C)ccn12 | inconclusive: 39.8 µM [inhibitor, single point] | – |
| CSc1cccc(CN2CCC(CCC(=O)NC3CC3)CC2)c1 | inconclusive: 2.24 µM [inhibitor, partial curve, poor fit] | – |

| SMILES | Potency | activity, negative = inhibition |
| --- | --- | --- |
| COc1ccc(-c2nc3c(C(=O)NCCN(C)C)cccc3c3ccccc23)cc1 | inconclusive: 89.1 µM [inhibitor, partial curve, poor fit] | – |
| COc1ccc2[nH]c3c(c2c1)CCN1C(=O)C(CC(=O)NCCCN(C)C)C[C@H](C(=O)N2CCCCC2)[C@@]31C (some centres not stated) | inconclusive: 50.1 µM [inhibitor, partial curve, poor fit] | – |
| COc1ccc(-c2coc3cc(O[C@@H]4O[C@H](CO)[C@@H](O)[C@H](O)[C@H]4O)ccc3c2=O)cc1 | inconclusive: 39.8 µM [inhibitor, single point] | – |
| O=C(COC(=O)C1CC2C=CC1C2)NCc1ccco1 (configuration not stated) | active: 14.1 µM | – |
| O=C(COC(=O)CCC(=O)c1ccc(Cl)cc1)NCc1ccco1 | active: 44.7 µM | – |
| CCCCn1c(=NC(=O)c2ccc3c(c2)OCO3)c(C#N)cc2c(=O)n3cccc(C)c3nc21 | inconclusive: 28.2 µM [inhibitor, partial curve, poor fit] | – |
| COc1ccc(S(=O)(=O)N2CCC(C(=O)N(C)Cc3ccc(C)o3)CC2)cc1OC | inconclusive: 39.8 µM [inhibitor, partial curve, poor fit] | – |
| c1ccc2c(c1)NC1(CCCCC1)n1c-2nc2ccccc21 | inconclusive: 100 µM [inhibitor, partial curve, poor fit] | – |
| Cc1ccccc1N/C(=C(/C(Cl)=C(Cl)Cl)[N+](=O)[O-])n1nnc2ccccc21 | inconclusive: 15.8 µM [inhibitor, partial curve, poor fit] | – |
| CCCCNC(=O)C1CCC(Cn2c(=O)c3sccc3n(Cc3ccccc3)c2=O)CC1 (configuration not stated) | – | inactive: -11.5% |
| CNC(=O)COC(=O)c1cc(-c2ccco2)nc2ccccc12 | inconclusive: 10 µM [inhibitor, full curve, poor fit] | – |
| CS(=O)(=O)c1ccc(S(=O)CC(=O)Oc2ccc(Cl)cc2)c([N+](=O)[O-])c1 (configuration not stated) | inconclusive: 28.2 µM [inhibitor, single point] | – |
| O=C(/C=C1\NC2(CCCC2)Cc2ccccc21)C(=O)N/N=C/c1ccc(O)c(O)c1 | inconclusive: 3.16 µM [inhibitor, full curve, poor fit] | – |
| CCN1CCN(Cc2c(O)ccc3c2O/C(=C\C=C\c2ccccc2OC)C3=O)CC1 | – | inactive: -5.4% |
| CCn1cc(C(=O)N2CCN(c3ccccn3)CC2)c(=O)c2cc(S(=O)(=O)N(C)C3CCCCC3)ccc21 | inconclusive: 50.1 µM [inhibitor, partial curve, poor fit] | – |
| CCC(=O)Nc1ccc(NC(=O)C23CC4CC(CC(C4)C2)C3)cn1 | inconclusive: 39.8 µM [inhibitor, partial curve, poor fit] | – |
| COCCNC(=O)c1ccc2c(c1)ncn2-c1ccc(F)c(F)c1 | inconclusive: 89.1 µM [inhibitor, single point] | – |
| C=C(C)C(C)(C#CCN1CCCC1)OC(C)=O (configuration not stated) | inconclusive: 89.1 µM [inhibitor, single point] | – |
| Cc1cc(C)cc(NC(=O)Cc2csc(C)n2)c1 | inconclusive: 89.1 µM [inhibitor, single point] | – |
| CCCCC#Cc1ccc(C(=O)NNC(=O)Nc2cc(Cl)cc(Cl)c2)o1 | inconclusive: 31.6 µM [inhibitor, partial curve, poor fit] | – |
